{
  "sequences": {"note": "Amino acid sequences for entries named in this document (tags omitted).", "UniProt P0DMW0": "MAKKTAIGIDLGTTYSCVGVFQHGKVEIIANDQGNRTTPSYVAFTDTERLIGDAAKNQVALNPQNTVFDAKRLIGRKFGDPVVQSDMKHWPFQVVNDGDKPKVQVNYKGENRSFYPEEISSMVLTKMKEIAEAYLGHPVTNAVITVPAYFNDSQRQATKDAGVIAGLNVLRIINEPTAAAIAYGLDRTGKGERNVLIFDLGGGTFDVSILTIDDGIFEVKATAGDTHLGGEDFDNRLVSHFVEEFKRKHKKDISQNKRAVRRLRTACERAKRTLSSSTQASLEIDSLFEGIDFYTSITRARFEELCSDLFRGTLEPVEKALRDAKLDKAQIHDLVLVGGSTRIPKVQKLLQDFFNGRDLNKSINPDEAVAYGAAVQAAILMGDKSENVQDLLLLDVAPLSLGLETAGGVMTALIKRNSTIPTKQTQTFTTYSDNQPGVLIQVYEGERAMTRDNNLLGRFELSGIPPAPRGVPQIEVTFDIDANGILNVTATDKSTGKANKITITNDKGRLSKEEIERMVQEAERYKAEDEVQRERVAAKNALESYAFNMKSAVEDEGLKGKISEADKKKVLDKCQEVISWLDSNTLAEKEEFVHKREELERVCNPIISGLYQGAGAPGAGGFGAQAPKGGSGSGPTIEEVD", "UniProt A6HD62": "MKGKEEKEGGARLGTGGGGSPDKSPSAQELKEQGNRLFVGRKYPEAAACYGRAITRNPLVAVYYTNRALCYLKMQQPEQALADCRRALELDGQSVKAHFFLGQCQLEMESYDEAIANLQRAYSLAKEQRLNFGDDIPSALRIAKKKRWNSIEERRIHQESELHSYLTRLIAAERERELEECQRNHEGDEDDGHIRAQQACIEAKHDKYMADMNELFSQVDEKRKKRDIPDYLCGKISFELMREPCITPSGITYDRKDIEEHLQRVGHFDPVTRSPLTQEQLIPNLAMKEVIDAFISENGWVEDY"},
  "source": "paper PMC12095639",
  "molecular_target": "70-kDa heat shock protein (HSP70), endogenous in NRVMs (rat (endogenous in NRVMs)) (UniProt P0DMW0)",
  "assay": "co-IP; NRVMs infected with Ad-Vector or Ad-Asb10, with or without STUB1 siRNA; STUB1/HSP70 complex and HSP70 ubiquitination detected (Fig. 4G, H); lysates incubated with antibody and Protein A&G magnet beads overnight at 4 °C",
  "note": "Results are given in words; binding and its absence hold for the method and conditions named. In cells and extracts the contact can be indirect. Some entries that bind do so weakly or less than the wild type.",
  "data": [
    {"substance": "STIP1 homology and U-box containing protein 1 (STUB1), endogenous in NRVMs (from UniProt A6HD62 1-304) (enzyme)", "values": [
      {"measurement": "binding", "value": "binds"}
    ]}
  ]
}
